Results as given in PubChem BioAssay AID248 (DTP/NCI, 2004).
The list shows only some results of the screen, not a fair sample: it gathers tests that were run many times, whatever their T/C, doses with no T/C, and many T/C values between a quarter and a half above the control. Further doses and runs are listed elsewhere. T/C is the treated group as % of the vehicle group. Some entries give survivors of the animals treated and no T/C: the source files T/C as zero there, which appears to mark a toxic dose or a test without result, not a measured value. Some survivor counts are full or nearly so, which does not show that the dose was tolerated: survival well below the control is almost never listed, so the zero probably covers shortened survival too. Survivors were counted at the toxicity check, usually on the fifth day, unless a day is given; later deaths do not show. Schedule codes are those of the source, taken here to give the interval after Q, in days (D) or hours (H), and the number of doses after X. Some structures stand for samples that the source files as different forms (salt, stereo form or complex); doses refer to the form tested. Some schedule codes hold Z or #, which are not explained here. For survival time, this PubChem deposit counts one and a half times the control or more as active, and values a quarter to a half above the control carry no call in these data; other NCI protocols may use other cut-offs.

Test system: L1210 leukemia ip in BDF1 mice, survival T/C
Experiment: NCI In Vivo Anticancer Drug Screen. Data for tumor model L1210 Leukemia (intraperitoneal) in B6D2F1 (BDF1) mice
Details: T/C endpoint: mean survival time, higher T/C = longer survival
[1] = dose: 200.0 mg/kg/injection, schedule: Q04DX003 (ip), vehicle: saline
[2] = dose: 400.0 mg/kg/injection, schedule: Q04DX003 (ip), vehicle: saline
[3] = dose: 400.0 mg/kg/injection, schedule: Q04DX003 (ip), vehicle: Klucel (hydroxypropylcellulose) (HPC)
[4] = dose: 50.0 mg/kg/injection, schedule: Q04DX003 (ip), vehicle: saline
[5] = dose: 100.0 mg/kg/injection, schedule: Q04DX003 (ip), vehicle: saline
[6] = dose: 400.0 mg/kg/injection, schedule: Q01DX001 (ip), vehicle: saline
[7] = dose: 200.0 mg/kg/injection, schedule: Q01DX009 (ip), vehicle: Klucel (hydroxypropylcellulose) (HPC)
[8] = dose: 400.0 mg/kg/injection, schedule: Q01DX009 (ip), vehicle: Klucel (hydroxypropylcellulose) (HPC)
[9] = dose: 100.0 mg/kg/injection, schedule: Q01DX009 (ip), vehicle: Klucel (hydroxypropylcellulose) (HPC)
[10] = dose: 200.0 mg/kg/injection, schedule: Q04DX003 (ip), vehicle: saline with Tween-80
[11] = dose: 400.0 mg/kg/injection, schedule: Q04DX003 (ip), vehicle: saline with Tween-80

Q: For `COC(=O)/C=C/N(CCF)CCF`, which survivor count (dose: 10.0 mg/kg/injection, schedule: Q01DX Z (ip), vehicle: other) is on record?
A: 1 of 6

Q: What about the survivor count (dose: 30.0 mg/kg/injection, schedule: Q01DX Z (ip), vehicle: other) of the same compound?
A: 0 of 6

Q: And the survivor count (dose: 100.0 mg/kg/injection, schedule: Q01DX Z (ip), vehicle: other)?
A: 0 of 6

Q: And the survivor count (dose: 300.0 mg/kg/injection, schedule: Q01DX Z (ip), vehicle: other)?
A: 0 of 6

Q: What does the source list for `O=C1C(=O)C2(O)C(=O)C12O` (stereo not drawn)?
A: survivor count [1]: 4 of 6; survivor count [2]: 2 of 6

Q: For `Cn1c(=O)c2ccccc2c2cc([N+](=O)[O-])ccc21`, which survivor count [3] is on record?
A: 6 of 6

Q: Which results are given for `CO[C@H]1C=CC2=CCN3CCC4=C(CC(=O)OC4)[C@]23C1`?
A: survivor count (dose: 40.0 mg/kg/injection, schedule: Q01DX001 (ip), vehicle: saline): 0 of 4; survivor count (dose: 60.0 mg/kg/injection, schedule: Q01DX001 (ip), vehicle: saline): 0 of 4

Q: What does the source list for `C[CH2][Sn]([CH2]C)([CH2]C)[NH]S(=O)(=O)c1ccc(C)cc1`?
A: survivor count (dose: 6.25 mg/kg/injection, schedule: Q01DX009 (ip), vehicle: saline with Tween-80): 6 of 6; survivor count (dose: 12.5 mg/kg/injection, schedule: Q01DX009 (ip), vehicle: saline with Tween-80): 0 of 6; survivor count (dose: 25.0 mg/kg/injection, schedule: Q04DX003 (ip), vehicle: saline): 1 of 6; survivor count [4]: 0 of 6; survivor count [5]: 0 of 6; survivor count [1]: 0 of 6; survivor count [2]: 0 of 6

Q: Which survivor count (dose: 12.5 mg/kg/injection, schedule: Q01DX009 (ip), vehicle: other) does the source give for `C[CH2][Pb]([Cl])([CH2]C)[CH2]C` here?
A: 0 of 6

Q: What about the survivor count (dose: 25.0 mg/kg/injection, schedule: Q01DX009 (ip), vehicle: other) of the same compound?
A: 0 of 6

Q: What about the survivor count (dose: 50.0 mg/kg/injection, schedule: Q01DX009 (ip), vehicle: other) of the same compound?
A: 0 of 6

Q: What about the survivor count (dose: 100.0 mg/kg/injection, schedule: Q01DX009 (ip), vehicle: other) of the same compound?
A: 0 of 6

Q: And the survivor count (dose: 200.0 mg/kg/injection, schedule: Q01DX009 (ip), vehicle: other)?
A: 0 of 6

Q: And the survivor count (dose: 400.0 mg/kg/injection, schedule: Q01DX009 (ip), vehicle: other)?
A: 0 of 6

Q: How did the survivor count [6] turn out when `CCN(CC)CCNC(=O)c1cc(N2CCOCC2)ccn1` was run?
A: 3 of 6

Q: Which results are given for `CCN(CC)C(C)CN1c2ccccc2Sc2ccccc21` (stereo not drawn)?
A: survivor count [4]: 4 of 4; survivor count [7]: 6 of 6; survivor count [8]: 4 of 6; survivor count [2]: 2 of 4

Q: Which results are given for `Cc1ccc2c(c1)CC(C)([CH2][Hg][Cl])O2` (stereo not drawn)?
A: survivor count (dose: 12.0 mg/kg/injection, schedule: Q01DX009 (ip), vehicle: Klucel (hydroxypropylcellulose) (HPC)): 6 of 6; survivor count (dose: 12.5 mg/kg/injection, schedule: Q04DX003 (ip), vehicle: Klucel (hydroxypropylcellulose) (HPC)): 3 of 6; survivor count (dose: 25.0 mg/kg/injection, schedule: Q04DX003 (ip), vehicle: Klucel (hydroxypropylcellulose) (HPC)): 0 of 6; survivor count (dose: 50.0 mg/kg/injection, schedule: Q04DX003 (ip), vehicle: Klucel (hydroxypropylcellulose) (HPC)): 0 of 6; survivor count (dose: 100.0 mg/kg/injection, schedule: Q04DX003 (ip), vehicle: Klucel (hydroxypropylcellulose) (HPC)): 0 of 6; survivor count (dose: 200.0 mg/kg/injection, schedule: Q04DX003 (ip), vehicle: Klucel (hydroxypropylcellulose) (HPC)): 0 of 6; survivor count [3]: 0 of 6

Q: What does the source list for `CC(C)(C)NC/C(=C\c1ccccc1)C(=O)c1ccccc1`?
A: survivor count (dose: 100.0 mg/kg/injection, schedule: Q01DX001 (ip), vehicle: saline): 1 of 4; survivor count [9]: 3 of 6; survivor count (dose: 200.0 mg/kg/injection, schedule: Q01DX001 (ip), vehicle: saline): 1 of 4; survivor count [7]: 5 of 6; survivor count [10]: 0 of 6; survivor count [6]: 1 of 4; survivor count [8]: 0 of 6; survivor count [11]: 0 of 6

Q: With `NC1CCCCCCCC1` as the compound, how does the survivor count (dose: 300.0 mg/kg/injection, schedule: Q01DX001 (ip), vehicle: acetone) read?
A: 0 of 6

Q: What does the source list for `CCOP(=O)(OCC)Oc1cc(C)c(SC#N)c(C)c1`?
A: survivor count (dose: 75.0 mg/kg/injection, schedule: Q01DX001 (ip), vehicle: saline): 0 of 6; survivor count (dose: 150.0 mg/kg/injection, schedule: Q01DX001 (ip), vehicle: saline): 0 of 6; survivor count (dose: 300.0 mg/kg/injection, schedule: Q01DX001 (ip), vehicle: saline): 0 of 6

Q: For `COC1OCN(C)CC1(C)C` (stereo not drawn), which survivor count [3] is on record?
A: 0 of 6

Q: `CCOC(=O)C(N=Nc1ccccc1)C(C)=O` (stereo not drawn) was tested. Which survivor count [9] did it give?
A: 3 of 6

Q: What about the survivor count [7] of the same compound?
A: 0 of 6

Q: And the survivor count [8]?
A: 0 of 6

Q: Which survivor count (dose: 100.0 mg/kg/injection, schedule: Q04DX003 (ip), vehicle: saline with Tween-80) does the source give for `CCCCCCCCCCN1C(=O)C(Cl)=C(Cl)C1=O` here?
A: 0 of 6

Q: And the survivor count [10]?
A: 0 of 6

Q: What about the survivor count [11] of the same compound?
A: 0 of 6

Q: How did the survivor count (dose: 100.0 mg/kg/injection, schedule: Q04DX002 (ip), vehicle: saline) turn out when `CC(N)CC12CC3CC(CC(C3)C1)C2` (stereo not drawn) was run?
A: 2 of 3

Q: What about the survivor count (dose: 200.0 mg/kg/injection, schedule: Q04DX002 (ip), vehicle: saline) of the same compound?
A: 1 of 3

Q: And the survivor count (dose: 400.0 mg/kg/injection, schedule: Q04DX002 (ip), vehicle: saline)?
A: 0 of 3

Q: Which survivor count (dose: 75.0 mg/kg/injection, schedule: Q01DX001 (ip), vehicle: steroid suspending solution) does the source give for `Cc1ccc(S(=O)(=O)NC(=O)C(C)Br)cc1` (stereo not drawn) here?
A: 6 of 6

Q: For `O=C(O)CSc1ccccc1C(=O)O`, which survivor count [6] is on record?
A: 2 of 4

Q: For `N=C(N=C(N)N)N(Cc1ccccc1)Cc1ccccc1`, which survivor count (dose: 50.0 mg/kg/injection, schedule: Q01DX001 (ip), vehicle: water) is on record?
A: 0 of 6

Q: What about the survivor count (dose: 100.0 mg/kg/injection, schedule: Q01DX001 (ip), vehicle: water) of the same compound?
A: 2 of 6

Q: What about the survivor count (dose: 200.0 mg/kg/injection, schedule: Q01DX001 (ip), vehicle: water) of the same compound?
A: 2 of 6

Q: What about the survivor count (dose: 400.0 mg/kg/injection, schedule: Q01DX001 (ip), vehicle: water) of the same compound?
A: 1 of 6

Q: Which results are given for `Cc1cc(-c2cc(C)c(O)c(C(C)(C)C)c2)cc(C(C)(C)C)c1O`?
A: survivor count (dose: 100.0 mg/kg/injection, schedule: Q04DX002 (ip), vehicle: gum acacia): 3 of 3; survivor count (dose: 200.0 mg/kg/injection, schedule: Q04DX002 (ip), vehicle: gum acacia): 3 of 3; survivor count (dose: 400.0 mg/kg/injection, schedule: Q04DX002 (ip), vehicle: gum acacia): 3 of 3

Q: For `CC1CCCC(NC(=O)N(CCCl)N=O)C1` (stereo not drawn), which T/C (dose: 16.0 mg/kg/injection, schedule: Q01DX001 (ip), vehicle: other) is on record?
A: 147 % of control

Q: What about the T/C (dose: 143.0 mg/kg/injection, schedule: Q01DX001 (ip), vehicle: other) of the same compound?
A: 128 % of control

Q: What about the survivor count (dose: 250.0 mg/kg/injection, schedule: Q01DX001 (ip), vehicle: other) of the same compound?
A: 6 of 6

Q: And the survivor count (dose: 375.0 mg/kg/injection, schedule: Q01DX001 (ip), vehicle: other)?
A: 6 of 6

Q: And the survivor count (dose: 500.0 mg/kg/injection, schedule: Q01DX001 (ip), vehicle: other)?
A: 4 of 6

Q: And the survivor count (dose: 750.0 mg/kg/injection, schedule: Q01DX001 (ip), vehicle: other)?
A: 2 of 6

Q: How did the survivor count (dose: 80.0 mg/kg/injection, schedule: Q04DX003 (ip), vehicle: saline) turn out when `[Cl][Zn][Cl].[NH-]CCN1CC1.[NH-]CCN1CC1` was run?
A: 0 of 6

Q: And the survivor count [5]?
A: 0 of 6

Q: What about the survivor count [1] of the same compound?
A: 0 of 6

Q: And the survivor count [2]?
A: 0 of 6

Q: `OC(c1ccccc1)(c1ccccc1)C1CCC1` was tested. Which survivor count [7] did it give?
A: 5 of 5

Q: With `O=C(Nc1ccc(C2=NCCN2)cc1)C(=O)Nc1ccc(C2=NCCN2)cc1` as the compound, how does the survivor count (dose: 120.0 mg/kg/injection, schedule: Q01DX Z (ip), vehicle: saline) read?
A: 0 of 6

Q: With `Fc1ccc2[nH]c3c(c2c1)C[P+](Cc1cccc2ccccc12)(c1ccccc1)CC3` (stereo not drawn) as the compound, how does the survivor count [2] read?
A: 6 of 6
